Test results taken from US20020151491A1, “Composition and method for treating the over-production of mucin in diseases such as otitis media using an inhibitor of MUC5AC” (priority 2000, published 2002).
At least one structure is not confirmed: it was looked up by name or label, or the drawing left a doubt.

Legend:
MUC5AC transcription = assay: MUC5AC promoter-luciferase reporter assay (pMUC5AC3.7luc) in human epithelial cells; type: cell-based; details: HM3 cells stably transfected with pMUC5AC3.7luc; for effect on NTHi-induced MUC5AC transcription (luciferase activity): pretreated with inhibitor 1-2 h, then NTHi SCF 4 h
Protocol: The luciferase assay was performed as follows: expression plasmids fp38α(AF) and fp38β(AF) were previously described in Shuto, et al. (2001) Proc. Natl, Acad. Sci. U.S.A. 98, pages 8774-9. The expression plasmids p110, p85α, Akt KD, and Akt WT were provided by D. Stokoe (University of California, San Francisco). The reporter construct MUC5AC contained 3.7-kb 5′-flanking region of the human MUC5AC mucin gene in a luciferase reporter vector pGL3 (Li, et al. 1998, J. Biol. Chem. 273, 68126820). Transient transfections of cells were performed in triplicate with Trans IT-LT1 (Panvera, Madison, WT) following the manufacturer's instructions. Forty-two hours after transfection, the cells were treated with NTHi for 4 h and then harvested for use in the luciferase assay. For experiments with inhibitors, HM3 cells stably transfected with MUC5AC-luciferase plasmid were pretreated with inhibitors for 1-2 h, then treated with NTHi for 4 h and harvested for luciferase assays. Luciferase assays were performed on a Monolight 3010 luminometer for 15 s (Analytical Luminescence, San Diego, Calif.). The NTHi-dependent fold induction was calculated relative to the luciferase light units obtained in the absence of NTHi treatment. The normalized luciferase activity was thus expressed as relative luciferase activity (fold induction).

Akt phosphorylation = assay: Western blot of NTHi SCF-induced Akt phosphorylation in HM3 cells; type: cell-based, human; details: HM3 cells pretreated 2 h, then NTHi SCF 15 min, 30 min

| SMILES | effect on NTHi-induced MUC5AC transcription in cells already pretreated with SB203580 (MUC5AC transcription; SB203580 pretreatment first) | effect on NTHi-induced MUC5AC transcription (luciferase activity) (MUC5AC transcription) | effect on NTHi-induced Akt phosphorylation (Akt phosphorylation) |
| --- | --- | --- | --- |
| COC[C@H]1OC(=O)c2coc3c2[C@@]1(C)C1=C(C3=O)[C@@H]2CCC(=O)[C@@]2(C)C[C@H]1OC(C)=O [wortmannin] | no longer enhanced NTHi-induced MUC5AC transcription | markedly enhanced the MUC5AC induction in a dose-dependent manner | abrogated Akt phosphorylation |
| O=c1cc(N2CCOCC2)oc2c(-c3ccccc3)cccc12 [LY294002] |  | markedly enhanced the MUC5AC induction in a dose-dependent manner |  |
